Our source for the NP40-soluble protein abundance values is the supplement of paper PMC6411743.

Amino acid sequences for entries named in this document (tags omitted). A change or cut given only in a name is not applied to a line headed by its entry.
UniProt P55212: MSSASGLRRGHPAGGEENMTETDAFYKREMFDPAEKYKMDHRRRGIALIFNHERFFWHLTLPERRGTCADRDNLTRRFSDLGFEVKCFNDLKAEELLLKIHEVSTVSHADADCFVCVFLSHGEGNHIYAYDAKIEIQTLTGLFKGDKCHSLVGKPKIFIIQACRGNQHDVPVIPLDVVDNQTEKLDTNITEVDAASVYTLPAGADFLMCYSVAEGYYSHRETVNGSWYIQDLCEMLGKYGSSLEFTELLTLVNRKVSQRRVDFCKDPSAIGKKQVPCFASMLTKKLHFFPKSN
UniProt O00560: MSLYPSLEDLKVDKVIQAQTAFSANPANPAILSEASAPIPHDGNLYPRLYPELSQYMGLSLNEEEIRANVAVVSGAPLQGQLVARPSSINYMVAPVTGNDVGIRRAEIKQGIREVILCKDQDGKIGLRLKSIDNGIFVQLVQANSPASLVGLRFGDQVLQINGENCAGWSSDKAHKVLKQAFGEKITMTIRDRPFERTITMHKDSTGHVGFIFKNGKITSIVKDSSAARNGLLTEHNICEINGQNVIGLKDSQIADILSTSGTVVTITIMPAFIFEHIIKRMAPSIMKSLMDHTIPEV
UniProt Q96SY0, whole entry: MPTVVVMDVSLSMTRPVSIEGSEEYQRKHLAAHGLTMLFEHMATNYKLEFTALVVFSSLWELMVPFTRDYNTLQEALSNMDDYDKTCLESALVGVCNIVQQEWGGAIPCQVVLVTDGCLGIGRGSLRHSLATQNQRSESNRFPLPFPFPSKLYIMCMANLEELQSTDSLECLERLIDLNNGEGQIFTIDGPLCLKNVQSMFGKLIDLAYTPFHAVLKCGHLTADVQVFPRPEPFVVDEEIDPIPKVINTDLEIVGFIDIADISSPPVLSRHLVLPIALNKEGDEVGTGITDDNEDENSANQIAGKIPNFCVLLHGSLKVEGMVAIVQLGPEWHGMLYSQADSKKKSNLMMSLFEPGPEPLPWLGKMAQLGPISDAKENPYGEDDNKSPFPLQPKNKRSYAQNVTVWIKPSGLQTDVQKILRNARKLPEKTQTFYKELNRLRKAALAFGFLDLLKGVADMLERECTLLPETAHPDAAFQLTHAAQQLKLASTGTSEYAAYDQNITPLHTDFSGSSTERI
UniProt Q32P44: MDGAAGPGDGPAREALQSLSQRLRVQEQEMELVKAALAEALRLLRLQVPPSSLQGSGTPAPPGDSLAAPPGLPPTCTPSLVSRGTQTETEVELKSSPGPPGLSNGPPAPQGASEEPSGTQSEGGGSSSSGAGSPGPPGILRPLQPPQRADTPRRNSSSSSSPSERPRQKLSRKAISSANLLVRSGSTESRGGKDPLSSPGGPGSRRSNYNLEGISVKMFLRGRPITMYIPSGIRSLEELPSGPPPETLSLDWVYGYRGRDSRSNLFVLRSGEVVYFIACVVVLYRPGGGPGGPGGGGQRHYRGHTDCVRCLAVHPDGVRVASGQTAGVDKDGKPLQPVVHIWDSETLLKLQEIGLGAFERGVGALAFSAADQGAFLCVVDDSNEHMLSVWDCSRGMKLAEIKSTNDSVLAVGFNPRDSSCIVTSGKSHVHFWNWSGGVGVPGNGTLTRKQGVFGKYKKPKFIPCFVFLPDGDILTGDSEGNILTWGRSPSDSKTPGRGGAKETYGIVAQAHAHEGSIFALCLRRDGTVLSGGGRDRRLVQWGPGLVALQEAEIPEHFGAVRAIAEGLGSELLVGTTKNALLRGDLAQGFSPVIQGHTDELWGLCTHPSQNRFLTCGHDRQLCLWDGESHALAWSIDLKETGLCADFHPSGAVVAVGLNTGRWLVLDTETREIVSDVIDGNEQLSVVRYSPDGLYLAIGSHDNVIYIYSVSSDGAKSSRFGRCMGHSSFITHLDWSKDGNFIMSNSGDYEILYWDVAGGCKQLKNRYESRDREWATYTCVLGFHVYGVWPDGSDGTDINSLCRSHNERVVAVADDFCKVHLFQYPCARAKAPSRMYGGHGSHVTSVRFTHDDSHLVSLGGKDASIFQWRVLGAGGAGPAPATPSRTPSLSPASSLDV
UniProt P68104, whole entry: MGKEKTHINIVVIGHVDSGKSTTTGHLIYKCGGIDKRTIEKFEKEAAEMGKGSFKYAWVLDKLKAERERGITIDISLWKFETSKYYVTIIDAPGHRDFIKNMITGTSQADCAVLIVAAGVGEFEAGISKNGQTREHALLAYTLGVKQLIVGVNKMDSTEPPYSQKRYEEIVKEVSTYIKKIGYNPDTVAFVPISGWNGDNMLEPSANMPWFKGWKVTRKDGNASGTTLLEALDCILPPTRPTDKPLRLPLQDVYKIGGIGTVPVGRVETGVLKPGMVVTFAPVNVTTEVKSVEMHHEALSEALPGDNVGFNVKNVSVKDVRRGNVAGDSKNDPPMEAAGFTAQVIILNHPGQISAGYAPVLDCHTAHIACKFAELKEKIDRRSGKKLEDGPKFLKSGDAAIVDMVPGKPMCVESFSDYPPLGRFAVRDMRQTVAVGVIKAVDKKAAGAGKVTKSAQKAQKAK
UniProt Q6P1N9: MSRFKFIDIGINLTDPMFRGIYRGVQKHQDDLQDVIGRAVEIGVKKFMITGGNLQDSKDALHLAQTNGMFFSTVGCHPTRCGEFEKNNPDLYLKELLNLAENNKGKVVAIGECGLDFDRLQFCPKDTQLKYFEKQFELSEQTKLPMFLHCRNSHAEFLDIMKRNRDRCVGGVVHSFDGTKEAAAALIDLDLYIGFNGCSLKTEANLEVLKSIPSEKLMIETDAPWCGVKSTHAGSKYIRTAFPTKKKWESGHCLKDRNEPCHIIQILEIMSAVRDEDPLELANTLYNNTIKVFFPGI
UniProt Q8N3P4: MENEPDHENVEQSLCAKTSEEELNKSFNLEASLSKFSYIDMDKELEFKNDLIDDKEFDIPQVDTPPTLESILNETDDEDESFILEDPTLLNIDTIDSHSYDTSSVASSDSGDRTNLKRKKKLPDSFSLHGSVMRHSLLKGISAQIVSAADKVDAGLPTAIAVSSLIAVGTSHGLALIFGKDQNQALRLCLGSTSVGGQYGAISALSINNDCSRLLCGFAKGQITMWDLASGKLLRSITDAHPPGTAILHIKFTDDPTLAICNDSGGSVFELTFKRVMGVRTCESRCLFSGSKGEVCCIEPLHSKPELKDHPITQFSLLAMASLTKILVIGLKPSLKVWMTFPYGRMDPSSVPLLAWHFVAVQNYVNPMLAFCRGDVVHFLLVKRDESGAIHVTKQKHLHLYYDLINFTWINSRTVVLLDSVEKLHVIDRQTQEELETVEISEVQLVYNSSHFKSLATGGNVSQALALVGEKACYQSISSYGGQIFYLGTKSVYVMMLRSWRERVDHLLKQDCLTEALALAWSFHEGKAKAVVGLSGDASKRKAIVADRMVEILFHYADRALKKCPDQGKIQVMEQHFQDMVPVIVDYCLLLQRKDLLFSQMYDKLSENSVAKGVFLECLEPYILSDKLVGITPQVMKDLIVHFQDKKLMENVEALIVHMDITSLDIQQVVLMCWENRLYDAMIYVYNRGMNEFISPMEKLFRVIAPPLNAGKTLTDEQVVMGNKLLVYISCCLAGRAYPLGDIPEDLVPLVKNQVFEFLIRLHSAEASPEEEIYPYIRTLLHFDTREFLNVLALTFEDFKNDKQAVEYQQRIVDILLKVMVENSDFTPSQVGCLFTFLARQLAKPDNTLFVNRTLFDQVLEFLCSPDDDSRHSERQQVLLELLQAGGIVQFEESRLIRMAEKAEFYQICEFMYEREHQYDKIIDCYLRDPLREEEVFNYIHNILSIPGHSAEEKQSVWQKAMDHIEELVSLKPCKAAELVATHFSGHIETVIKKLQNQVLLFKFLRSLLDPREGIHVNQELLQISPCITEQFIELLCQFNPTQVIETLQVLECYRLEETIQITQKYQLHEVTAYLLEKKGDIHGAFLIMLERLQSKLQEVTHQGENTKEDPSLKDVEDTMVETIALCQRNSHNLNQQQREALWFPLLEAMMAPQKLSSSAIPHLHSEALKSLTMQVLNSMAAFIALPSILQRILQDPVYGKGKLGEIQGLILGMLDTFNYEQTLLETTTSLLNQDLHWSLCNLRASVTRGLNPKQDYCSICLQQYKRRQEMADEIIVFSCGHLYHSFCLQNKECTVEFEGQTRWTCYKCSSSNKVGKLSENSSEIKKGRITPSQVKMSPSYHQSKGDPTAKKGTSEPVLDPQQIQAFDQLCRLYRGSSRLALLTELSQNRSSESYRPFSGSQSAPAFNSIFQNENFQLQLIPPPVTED
UniProt Q9H000: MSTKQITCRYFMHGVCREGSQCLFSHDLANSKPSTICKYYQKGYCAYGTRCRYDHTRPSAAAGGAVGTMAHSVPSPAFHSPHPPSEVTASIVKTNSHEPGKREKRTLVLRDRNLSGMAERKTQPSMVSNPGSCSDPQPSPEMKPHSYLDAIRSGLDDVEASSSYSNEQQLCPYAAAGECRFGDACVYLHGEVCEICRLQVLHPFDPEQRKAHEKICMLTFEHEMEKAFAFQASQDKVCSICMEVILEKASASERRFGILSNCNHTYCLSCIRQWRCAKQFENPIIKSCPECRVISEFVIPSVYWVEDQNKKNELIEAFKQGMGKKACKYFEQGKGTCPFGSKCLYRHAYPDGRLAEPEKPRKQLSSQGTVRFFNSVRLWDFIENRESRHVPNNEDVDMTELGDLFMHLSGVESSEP
UniProt Q7L5N1: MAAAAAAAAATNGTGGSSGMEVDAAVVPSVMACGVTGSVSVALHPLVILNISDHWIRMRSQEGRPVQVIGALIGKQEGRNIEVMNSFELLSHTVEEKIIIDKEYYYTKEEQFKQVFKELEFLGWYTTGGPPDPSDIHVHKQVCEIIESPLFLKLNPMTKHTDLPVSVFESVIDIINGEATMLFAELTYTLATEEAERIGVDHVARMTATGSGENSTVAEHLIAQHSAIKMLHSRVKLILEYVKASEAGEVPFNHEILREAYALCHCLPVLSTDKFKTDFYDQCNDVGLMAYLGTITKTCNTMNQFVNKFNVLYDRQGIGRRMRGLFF
UniProt Q9UHQ4: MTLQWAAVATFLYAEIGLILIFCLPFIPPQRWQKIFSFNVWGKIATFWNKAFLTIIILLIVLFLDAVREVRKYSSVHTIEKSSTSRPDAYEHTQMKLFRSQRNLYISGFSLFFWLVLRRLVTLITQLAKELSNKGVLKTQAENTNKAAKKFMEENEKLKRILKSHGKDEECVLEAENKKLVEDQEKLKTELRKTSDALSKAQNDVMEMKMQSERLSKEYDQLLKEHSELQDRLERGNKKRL
UniProt Q96FF9: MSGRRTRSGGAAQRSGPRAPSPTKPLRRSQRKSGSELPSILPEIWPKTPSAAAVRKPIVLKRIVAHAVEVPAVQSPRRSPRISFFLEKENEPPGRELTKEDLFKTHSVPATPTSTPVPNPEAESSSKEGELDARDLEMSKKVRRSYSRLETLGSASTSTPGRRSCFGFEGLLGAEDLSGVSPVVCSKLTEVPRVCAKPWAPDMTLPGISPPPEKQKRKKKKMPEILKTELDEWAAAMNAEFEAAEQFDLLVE
UniProt Q8WVV9: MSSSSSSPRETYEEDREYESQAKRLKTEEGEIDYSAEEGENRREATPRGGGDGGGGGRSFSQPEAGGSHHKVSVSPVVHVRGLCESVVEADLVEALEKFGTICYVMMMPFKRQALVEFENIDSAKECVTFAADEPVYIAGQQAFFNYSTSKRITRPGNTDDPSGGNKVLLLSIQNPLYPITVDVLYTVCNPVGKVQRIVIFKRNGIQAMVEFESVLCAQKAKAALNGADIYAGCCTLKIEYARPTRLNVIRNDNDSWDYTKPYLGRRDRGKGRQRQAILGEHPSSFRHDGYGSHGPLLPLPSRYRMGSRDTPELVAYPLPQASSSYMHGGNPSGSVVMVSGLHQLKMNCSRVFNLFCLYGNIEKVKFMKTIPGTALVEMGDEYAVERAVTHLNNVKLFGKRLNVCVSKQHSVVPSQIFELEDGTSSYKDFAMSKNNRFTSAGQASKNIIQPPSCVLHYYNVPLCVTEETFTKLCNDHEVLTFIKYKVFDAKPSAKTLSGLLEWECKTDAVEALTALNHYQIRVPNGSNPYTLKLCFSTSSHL
UniProt P41732: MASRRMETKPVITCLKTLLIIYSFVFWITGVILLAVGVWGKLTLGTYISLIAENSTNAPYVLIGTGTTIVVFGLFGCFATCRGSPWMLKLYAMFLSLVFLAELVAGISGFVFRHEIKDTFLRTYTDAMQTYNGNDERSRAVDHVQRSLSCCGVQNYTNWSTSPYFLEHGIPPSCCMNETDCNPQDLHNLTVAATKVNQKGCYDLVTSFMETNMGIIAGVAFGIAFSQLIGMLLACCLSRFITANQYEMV

Compound in the experiment: Nc1nc2c(ncn2[C@@H]2O[C@H](COP(=O)(O)OP(=O)(O)OP(=O)(O)O)[C@@H](O)[C@H]2O)c(=O)[nH]1 [guanosine triphosphate]
The experiment in a line: NP40-soluble protein abundance relative to vehicle (solubility fold change) (ratio); higher = more soluble protein in presence of GTP. The essentials: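 Eight concentrations, 0.1 to 10 mM, were tested on Jurkat crude lysate for 10 min at room temperature and then 3 min at 37 °C, in three independent experiments. The lysate was solubilised with 0.8% NP40 and benzonase, ultracentrifuged, and the supernatant TMT-labelled for LC-MS/MS. Each value is the fold change against the detergent-processed vehicle in its own replicate, from vsn-normalised intensities.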

± gives the standard deviation of the averaged measurements. The list shows a part of the results.

On to “D6RHU3 and related entries (UniProt P55212)”, for which the NP40-soluble protein abundance turned out to be 1.05 ± 0.056 (concentration: 0.1mM); 1.01 ± 0.045 (concentration: 0.5mM); 0.92 ± 0.011 (concentration: 1mM); 0.885 ± 0.081 (concentration: 2mM); 0.886 ± 0.07 (concentration: 4mM); 0.886 ± 0.06 (concentration: 6mM). Besides, the NP40-soluble protein abundance is 0.853 ± 0.054 (concentration: 8mM) and 0.804 ± 0.084 (concentration: 10mM).
Turning to “B4DHN5 and related entries (UniProt O00560)”, the NP40-soluble protein abundance by setting is: (concentration: 0.1mM) 1.01 ± 0.094; (concentration: 0.5mM) 0.989 ± 0.084; (concentration: 1mM) 0.945 ± 0.089; (concentration: 2mM) 0.971 ± 0.037; (concentration: 4mM) 0.929 ± 0.1; (concentration: 6mM) 0.985 ± 0.044. In addition, the NP40-soluble protein abundance turned out to be 0.931 ± 0.13 (concentration: 8mM) and 0.954 ± 0.072 (concentration: 10mM).
Regarding “B4DJL6 and related entries (UniProt Q96SY0)”, the NP40-soluble protein abundance by setting is: (concentration: 0.1mM) 1.03 ± 0.049; (concentration: 0.5mM) 1.03 ± 0.035; (concentration: 1mM) 1.03 ± 0.064; (concentration: 2mM) 1.07 ± 0.051; (concentration: 4mM) 1.03 ± 0.058; (concentration: 6mM) 1.09 ± 0.025. In addition, the NP40-soluble protein abundance by setting is: (concentration: 8mM) 1.07 ± 0.086; (concentration: 10mM) 1.05 ± 0.066.
As for “B7WPE2 and related entries (UniProt Q32P44)”, the NP40-soluble protein abundance is, setting by setting: (concentration: 0.1mM) 1.09 ± 0.03; (concentration: 0.5mM) 1.12 ± 0.038; (concentration: 1mM) 1.11 ± 0.068; (concentration: 2mM) 1.14 ± 0.095; (concentration: 4mM) 1.14 ± 0.1; (concentration: 6mM) 1.15 ± 0.059. The NP40-soluble protein abundance by setting is: (concentration: 8mM) 1.13 ± 0.086; (concentration: 10mM) 1.08 ± 0.046.
Turning to “A6PW80 and related entries (UniProt P68104)”, the NP40-soluble protein abundance runs as follows: (concentration: 0.1mM) 0.979 ± 0.033; (concentration: 0.5mM) 0.987 ± 0.031; (concentration: 1mM) 0.961 ± 0.032; (concentration: 2mM) 0.909 ± 0.015; (concentration: 4mM) 0.8877 ± 0.0079; (concentration: 6mM) 0.921 ± 0.015. Moreover, the NP40-soluble protein abundance amounted to 0.883 ± 0.026 (concentration: 8mM) and 0.868 ± 0.023 (concentration: 10mM).
Consider “E5RG17 and related entries (UniProt Q6P1N9)”, for which the NP40-soluble protein abundance by setting is: (concentration: 0.1mM) 1.03 ± 0.016; (concentration: 0.5mM) 0.996 ± 0.014; (concentration: 1mM) 0.939 ± 0.05; (concentration: 2mM) 0.917 ± 0.066; (concentration: 4mM) 0.919 ± 0.066; (concentration: 6mM) 0.9 ± 0.061. Further, the NP40-soluble protein abundance runs as follows: (concentration: 8mM) 0.907 ± 0.052; (concentration: 10mM) 0.854 ± 0.078.
On to “C9JNW5 and related entries (UniProt P83731)”, for which the NP40-soluble protein abundance (concentration: 0.1mM) was 0.854 ± 0.011; the NP40-soluble protein abundance (concentration: 0.5mM) was found to be 0.859 ± 0.0099; the NP40-soluble protein abundance (concentration: 1mM) is 0.912 ± 0.046; the NP40-soluble protein abundance (concentration: 2mM) was found to be 0.871 ± 0.11; the NP40-soluble protein abundance (concentration: 4mM) was 0.817 ± 0.15; the NP40-soluble protein abundance (concentration: 6mM) amounted to 0.781 ± 0.14. In addition, the NP40-soluble protein abundance is 0.597 ± 0.077 (concentration: 8mM) and 0.837 ± 0.15 (concentration: 10mM).
As for “C9JJN9 and related entries (UniProt Q8N3P4)”, the NP40-soluble protein abundance (concentration: 0.1mM) was 1.08 ± 0.054; the NP40-soluble protein abundance (concentration: 0.5mM) was 1.04 ± 0.1; the NP40-soluble protein abundance (concentration: 1mM) was determined as 0.974 ± 0.083; the NP40-soluble protein abundance (concentration: 2mM) is 1.04 ± 0.1; the NP40-soluble protein abundance (concentration: 4mM) was found to be 1.01 ± 0.074; the NP40-soluble protein abundance (concentration: 6mM) stood at 0.99 ± 0.038. In addition, the NP40-soluble protein abundance runs as follows: (concentration: 8mM) 1.02 ± 0.062; (concentration: 10mM) 1.02 ± 0.055.
Turning to “C9J494 and related entries (UniProt Q9H000)”, the NP40-soluble protein abundance runs as follows: (concentration: 0.1mM) 0.976 ± 0.011; (concentration: 0.5mM) 0.995 ± 0.006; (concentration: 1mM) 0.966 ± 0.051; (concentration: 2mM) 0.947 ± 0.056; (concentration: 4mM) 0.919 ± 0.044; (concentration: 6mM) 1.01 ± 0.056. Moreover, the NP40-soluble protein abundance (concentration: 8mM) was found to be 0.963 ± 0.024 and the NP40-soluble protein abundance (concentration: 10mM) came out at 0.93 ± 0.053.
With “C9JQK5 and related entries (UniProt Q7L5N1)”, the NP40-soluble protein abundance runs as follows: (concentration: 0.1mM) 1.06 ± 0.075; (concentration: 0.5mM) 1.08 ± 0.1; (concentration: 1mM) 1.01 ± 0.063; (concentration: 2mM) 1.02 ± 0.097; (concentration: 4mM) 0.99 ± 0.083; (concentration: 6mM) 1.01 ± 0.11. The NP40-soluble protein abundance (concentration: 8mM) was 0.959 ± 0.062 and the NP40-soluble protein abundance (concentration: 10mM) was determined as 0.94 ± 0.056.
Consider “B7Z2L0 and related entries (UniProt Q9UHQ4)”, for which the NP40-soluble protein abundance (concentration: 0.1mM) worked out at 0.927 ± 0.066; the NP40-soluble protein abundance (concentration: 0.5mM) stood at 0.956 ± 0.071; the NP40-soluble protein abundance (concentration: 1mM) turned out to be 0.975 ± 0.051; the NP40-soluble protein abundance (concentration: 2mM) stood at 0.937 ± 0.097; the NP40-soluble protein abundance (concentration: 4mM) is 0.93 ± 0.066; the NP40-soluble protein abundance (concentration: 6mM) is 0.918 ± 0.058. Also, the NP40-soluble protein abundance reads like this: (concentration: 8mM) 0.972 ± 0.059; (concentration: 10mM) 0.99 ± 0.071.
Take “C9JLU1 and related entries (UniProt P52434)”: the NP40-soluble protein abundance runs as follows: (concentration: 0.1mM) 1.05 ± 0.091; (concentration: 0.5mM) 1.04 ± 0.09; (concentration: 1mM) 0.984 ± 0.081; (concentration: 2mM) 1 ± 0.13; (concentration: 4mM) 0.985 ± 0.096; (concentration: 6mM) 1.03 ± 0.089. In addition, the NP40-soluble protein abundance was 0.957 ± 0.08 (concentration: 8mM) and 0.931 ± 0.041 (concentration: 10mM).
With “B5MBX0 and related entries (UniProt Q96FF9)”, the NP40-soluble protein abundance is, setting by setting: (concentration: 0.1mM) 0.881 ± 0.081; (concentration: 0.5mM) 0.995 ± 0.11; (concentration: 1mM) 1.1 ± 0.078; (concentration: 2mM) 1.09 ± 0.19; (concentration: 4mM) 1.04 ± 0.13; (concentration: 6mM) 1.06 ± 0.17. Moreover, the NP40-soluble protein abundance reads like this: (concentration: 8mM) 1.06 ± 0.038; (concentration: 10mM) 1.09 ± 0.11.
With “C9IYN3 and related entries (UniProt Q8WVV9+B7WPG3+D6W592+C9IYN3)”, the NP40-soluble protein abundance by setting is: (concentration: 0.1mM) 1.07 ± 0.066; (concentration: 0.5mM) 1.1 ± 0.087; (concentration: 1mM) 0.979 ± 0.064; (concentration: 2mM) 1 ± 0.1; (concentration: 4mM) 1.01 ± 0.094; (concentration: 6mM) 0.976 ± 0.1. The NP40-soluble protein abundance is, setting by setting: (concentration: 8mM) 0.958 ± 0.063; (concentration: 10mM) 0.913 ± 0.12.
For the target “A8MX75 and related entries (UniProt P18074)”, the NP40-soluble protein abundance came out at 1.11 ± 0.067 (concentration: 0.1mM); 1.14 ± 0.094 (concentration: 0.5mM); 1.06 ± 0.058 (concentration: 1mM); 1.11 ± 0.098 (concentration: 2mM); 1.09 ± 0.043 (concentration: 4mM); 1.08 ± 0.088 (concentration: 6mM). The NP40-soluble protein abundance reads like this: (concentration: 8mM) 1.04 ± 0.049; (concentration: 10mM) 0.966 ± 0.1.
Regarding “B4DDG0 and related entries (UniProt P41732+B4E171+B4DDG0)”, the NP40-soluble protein abundance came out at 0.962 ± 0.061 (concentration: 0.1mM); 0.871 ± 0.08 (concentration: 0.5mM); 0.913 ± 0.064 (concentration: 1mM); 0.885 ± 0.075 (concentration: 2mM); 0.925 ± 0.042 (concentration: 4mM); 0.92 ± 0.087 (concentration: 6mM). The NP40-soluble protein abundance is, setting by setting: (concentration: 8mM) 0.85 ± 0.055; (concentration: 10mM) 0.921 ± 0.093.
